The supplement of paper PMC11237882
Some of the results follow. Values are worked out from sequencing counts and are noisy.

T1: Homer1 EVH1 domain
T1 chain: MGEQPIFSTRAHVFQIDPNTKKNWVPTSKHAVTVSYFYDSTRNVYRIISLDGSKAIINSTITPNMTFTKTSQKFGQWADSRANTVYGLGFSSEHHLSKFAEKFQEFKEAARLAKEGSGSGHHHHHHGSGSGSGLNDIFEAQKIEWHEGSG


Molecular target: T1, Homer1 EVH1 domain
Assay: enrichment score (AUC of log2 frequency ratio across FACS sorting rounds) (log2 AUC); higher = stronger enrichment for Homer1 EVH1 binding

Question: With HLNSDYSYGFAYILAWVAFPLALLSGVIYVILRKRE as the binder, how does the enrichment score read?
Answer: Its enrichment score is 3.

Question: For DPAFAMMVCLTLLIALLSINGFAYFIRRRINKIQLI, which enrichment score is on record?
Answer: Its enrichment score is 3.02.

Question: Which enrichment score does the source give for KLWEMLAYVLLPLLYLLVRKHINRAHTALYEYRPIL here?
Answer: Its enrichment score is 2.01.

Question: How did the enrichment score turn out when SGGLSQPAGWQSLLSFTILFLAWLAGFSSRLFAVIR was run?
Answer: Its enrichment score is 0.34.

Question: GVLGVFPLLGIIFSYSRIASSIRKMSSSGGKQKALS was tested. Which enrichment score did it give?
Answer: Its enrichment score is 1.46.

Question: For QKTVKLMYYLWMFHAVTLFLNIFGCLAWFCVDSARV, which enrichment score is on record?
Answer: Its enrichment score is 2.39.

Question: With SPALSLLIILYVKLSLFVVILVTTGFVFFQRINHVR as the binder, how does the enrichment score read?
Answer: Its enrichment score is 0.102.

Question: How did the enrichment score turn out when HLQVQGGGPQRRTQGLKEKLRPGPLASTTAHSRRLL was run?
Answer: Its enrichment score is -1.89.

Question: With EDVWEPGGQLSAQNLYLVIALACISFLFLGCLLFFV as the binder, how does the enrichment score read?
Answer: Its enrichment score is 5.19.

Question: SDATVTTLGNLVPFTLTLLCFLLLICSLCKHLKKMQ was tested. Which enrichment score did it give?
Answer: The enrichment score was 2.77.

Question: MEKINNVTEFIFWGLSQSPEIEKVCFVVFSFFYIII was tested. Which enrichment score did it give?
Answer: Its enrichment score is -0.64.

Question: For VGLLHMVLLSIPFFSIPVVWTLTNVIHNLATYVFLH, which enrichment score is on record?
Answer: The enrichment score was 3.03.

Question: How did the enrichment score turn out when EVAHSSLQIVLALAGFIYACYVVECITEEEDSFDFI was run?
Answer: Its enrichment score is -0.152.

Question: EQRRRPGLCPPPLELLLLLLFSLGLLHAGDCQQPAQ was tested. Which enrichment score did it give?
Answer: The enrichment score was 1.99.

Question: Which enrichment score does the source give for RGYRNHRSSRETREYAPPSRGHGYRDYGHSRRHESY here?
Answer: The enrichment score was 0.872.

Question: Which enrichment score does the source give for MANSGLQLLGFSMALLGWVGLVACTAIPQWQMSSYA here?
Answer: The enrichment score was 4.01.

Question: Which enrichment score does the source give for LSVLRLACADTWLNQVVIFAACVFFLVGPPSLVLVS here?
Answer: Its enrichment score is -1.44.

Question: How did the enrichment score turn out when TGFRIFQNTHAIDKYSRLIFPASYIFFNLIYWSVFS was run?
Answer: Its enrichment score is -3.36.

Question: With MSPVRRWGSPCLFPLQLFSLCWVLSVAQSKTVRYST as the binder, how does the enrichment score read?
Answer: The enrichment score was 0.397.

Question: MAPENFTRVTEFILTGVSSCPELQIPLFLVFLVLYG was tested. Which enrichment score did it give?
Answer: Its enrichment score is -0.479.

Question: For MRKRAPQSEMAPAGVSLRATILCLLAWAGLAAGDRV, which enrichment score is on record?
Answer: The enrichment score was 0.786.

Question: With KMVHGVYKKSIFVFTHVLVPVWIIHYYMKYHVSEKP as the binder, how does the enrichment score read?
Answer: The enrichment score was 0.172.

Question: KKSISYPACLVQCYLFIALVHVEIYILAVMAFDRYM was tested. Which enrichment score did it give?
Answer: The enrichment score was 2.21.

Question: How did the enrichment score turn out when MHTCCPPVTLEQDLHRKMHSWMLQTLAFAVTSLVLS was run?
Answer: Its enrichment score is -1.76.

Question: How did the enrichment score turn out when MPLLPSTVGLAGLLFWAGQAVNALIMPNATPAPAQP was run?
Answer: Its enrichment score is 0.599.

Question: LNICALILGILMTILLPEPSPVSALYPHTLFYDGIQ was tested. Which enrichment score did it give?
Answer: Its enrichment score is 4.5.

Question: Which enrichment score does the source give for MTGDCMPVLVLMAAVLTVTGAVPVARLRGALPDARG here?
Answer: Its enrichment score is 2.68.

Question: For NWHLLTNFICVAIFLNFSAIILISNCLVIRQLYRNK, which enrichment score is on record?
Answer: The enrichment score was 0.416.

Question: Which enrichment score does the source give for QRQKLLEQQRREKTENEGRRKFIKNKAWSKQKAKKE here?
Answer: Its enrichment score is 1.22.

Question: With KGMLGLIVYLGMMVGAFLWGGLADRLGRRQCLLICL as the binder, how does the enrichment score read?
Answer: Its enrichment score is 0.934.

Question: How did the enrichment score turn out when MARGAALALLLFGLLGVLVAAPDGGFDLSDALPDNE was run?
Answer: The enrichment score was 1.6.

Question: For LSQVYILTILILNVVAFFIICACYIKIYFAVRNPEL, which enrichment score is on record?
Answer: The enrichment score was 1.98.

Question: With MATKRLARQLGLIRRKSIAPANGNLGRSKSKQLFDY as the binder, how does the enrichment score read?
Answer: Its enrichment score is 1.69.

Question: For IGDNDVKDLIGFFILLGGSVLLAANVTLGLWLVTAR, which enrichment score is on record?
Answer: Its enrichment score is 2.45.

Question: With MMWPMHTPLLLLTALMVAVAGSASAQSRTLAGGIHA as the binder, how does the enrichment score read?
Answer: Its enrichment score is 1.66.

Question: For LFDSYAASGMCLLFVAIFECICIGWVYGSNRFYDNI, which enrichment score is on record?
Answer: Its enrichment score is 1.51.

Question: Which enrichment score does the source give for LEIKALRMKLGPLQFSVLWPYYVLGFGIFLFIVAGT here?
Answer: Its enrichment score is -1.94.

Question: For GPYVMMIGKMVANMFYIVVIMALVLLSFGVPRKAIL, which enrichment score is on record?
Answer: The enrichment score was -2.41.

Question: TLERPPALAMPLPTEGTPPPLSGTPIPVPAYFRHAE was tested. Which enrichment score did it give?
Answer: The enrichment score was 4.76.

Question: For PVQDQLSQSERYLYGSLATLLICLCAVFGLLLLTCT, which enrichment score is on record?
Answer: Its enrichment score is 1.57.

Question: Which enrichment score does the source give for VIMGVGTLLIAMPQFFMEQYKYERYSPSSNSTLSIS here?
Answer: Its enrichment score is 2.17.

Question: How did the enrichment score turn out when ALLADSQPPNRRALAVYPVFLFYFVISWMILTFTPQ was run?
Answer: Its enrichment score is 4.31.

Question: How did the enrichment score turn out when GEDWIFLVLLGLLMALVSWVMDYAIAACLQAQQWMS was run?
Answer: The enrichment score was 2.71.

Question: TLTTIGFGDTVLEHPNFFLFFSIYIIVGMEIVFIAF was tested. Which enrichment score did it give?
Answer: Its enrichment score is 0.972.
